Source: ChEMBL document CHEMBL4014298, “Discovery of a series of 8-(1-phenylpyrrolidin-2-yl)-6-carboxamide-2-morpholino-4H-chromen-4-one as PI3Kβ/δ inhibitors for the treatment of PTEN-deficient tumours” (Bioorg Med Chem Lett, 2017)

Experiment: Lipophilicity, log D of the compound at pH 7.4
Conditions: buffer

CN(C)C(=O)c1cc(C2CCCN2c2ccccc2)c2oc(N3CCOCC3)cc(=O)c2c1 (racemic)
logD: 2.4
